According to PubChem BioAssay AID1508600 (Functional Genomics Laboratory (NCATS/FGL), 2020):
The campaign covered roughly 53,000 sequences. About 3,700 (7%) were called active.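 How the source made its calls: active means gene knockdowns whose robust z-score for IL-1 alpha signal is at least 2 or at most -2, so actives lie on both sides; inactive means the rest.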 The list shows a part of the results.

Experiment: Components of the Cytosolic LPS Sensing Pathway: Gene Identification via Genome-wide siRNA Screen;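 further: robust z of the log signal after scaling to non-targeting control siRNA wells of the plate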
Conditions: RAW264.7 macrophages, IL-1a HTRF, actives lie on both sides, screened at 100 nM (by protocol), cells primed 5 h with Pam3CSK4 first
Method in brief: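 Read-out: IL-1a HTRF on supernatant, divided by plate negative-control median ×100, log-transformed and converted to robust z-score. Cells were RAW264.7 given 100 nM siRNA, Pam3CSK4-primed 5 hours, then LipidA-transfected 24 hour.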

Sequence | z-score
GCUGAAAAUACAAUCUCUGTT against Capn3 | inactive: 1.55
GGUGUGUUCGAGUGUUUCUTT against Asb7 | inactive: -0.602
GGAAACUGAUCUUUUGAAGTT against Ptgdr | inactive: -0.267
UUGACAGCUGGUAGACACUTT against Cdpf1 | inactive: -0.96
GGGCUAGAAGAACAUGUAATT against Ear1 | inactive: -1.16
CCUCUGUAGUCGCACCUAGTT against Agrp | inactive: 1.56
GGUGGAUAGUGACUUAUAUTT against Ifi47 | inactive: 1.09
GGAUGCAAGGGUUUUUUCCTT against Pparg | inactive: -0.431
GGAUUGAAAUGUGUAAAACTT against Fam135b | inactive: -1.03
GCUGUUCCGAUUGGAAAUUTT against Pcmt1 | inactive: 0.885
GGACAAGAAAACAGGUGUCTT against Tead3 | inactive: 1.05
GGAAGACAGGCAUAAAAAATT against Slc41a2 | inactive: -1.38
GCUCAUCGUGUUCGCUAUATT against Tuft1 | inactive: -0.235
GGGAGACACUACACAAAAATT against Hsd3b5 | inactive: 0.58
GGACACAAGAAUGGGAGAATT against Asph | inactive: 1.22
GCGGGCUUUGCUGAGAUUUTT against Zbtb48 | inactive: 0.604
GGACUGGUCCGAGGUAACUTT against Bhlhb9 | inactive: -1.51
GCAUUUGUUAAACCUGCCUTT against Coq10b | inactive: -0.0587
GCUAUGUAAGACAUUUAACTT against Ccdc162 | inactive: 1.6
GGGACUUGCACUCAUCUUCTT against Sft2d2 | inactive: 0.487
UCCCAGAAUAAGAGUGAGGTT against Clec4b2 | inactive: -0.481
GGAUGCGGAUCAGAACUACTT against C1ql4 | inactive: 0.803

Sequence | z-score
GCAUGGAUUGCUGUUUCUATT against Fam122c | inactive: 0.993
GCAACAUGUGAACAGAUGCTT against Slx4 | inactive: -0.13
GGAUCUGCAUUUCACUAUUTT against Pi4ka | inactive: 0.818
GGUAACAAAUGCUGUUUUATT against Cul1 | inactive: 0.459
GGUUAUAUAAGCAUCAAGGTT against Adamts18 | inactive: -0.621
GGAUUCAGAAUCCAUCUCUTT against Ankrd40 | inactive: -1.9
CCGCAUUCCCAUGAAGACATT against Poc1b | inactive: 0.879
GCGACACUGAAUUCUUUUATT against Ccng2 | inactive: 1.53
GGAAAAUUGUCCAUGUAAATT against Tex15 | inactive: -1.61
GACCUACUUUCCUCACUUUTT against Hba-a1 | inactive: -0.54
CCAAAGAGAUCCCAUACAATT against Spata31d1a | inactive: 1.31
GGGAGAGAAUGUGUUUGGUTT against Rps14 | inactive: 0.265
GGACUGAGAUCAAAUUCUCTT against Ptges2 | inactive: 0.806
GGAGAUUAACAACAUGAAGTT against Brap | inactive: -0.707
CGAGAAGUACAAAAGGGAGTT against Ccdc103 | inactive: -0.768
GUGCCAUGAAGAUCUCAAATT against Lce1c | inactive: 1.33
GGAGUGGCUCUGUUUGAACTT against Bsn | inactive: 0.775
GCCAAAUGGCUGUAUCUAUTT against Lgi2 | inactive: -0.0593
CGGUGUUUUGGUUAAAUGUTT against Slamf6 | inactive: 1.09
GGCAAAUUUGGAUGUGUGUTT against Dsg3 | inactive: -0.378
GGUGUGGACCCUAAGCUUUTT against Pianp | inactive: 1.9
GGAAAGCAAGUGCACAAAUTT against Slco1a4 | inactive: 0.618

Sequence | z-score
GGAAUUUUCAGUGUGUAAATT against Adam9 | inactive: -0.686
GCAGGAAUUCUUGAAUUAUTT against Ly75 | active: 2.66
GGAUGAUGACAAUUUUGAATT against Nap1l4 | inactive: -0.142
GGCCCAUAGUUGACUACAUTT against Septin8 | inactive: 0.11
GCAGCAUUUUAUCAACCAGTT against R3hdm4 | inactive: -0.0514
GCCUCUCUCUAUCUAUGCATT against Tob2 | active: -2.2
GGGCAUUUAGGGAAAAAAUTT against Zfp451 | inactive: -1.63
CCUGCUAAGUGAAUUUGUGTT against Cmpk1 | active: 2.18
CCGUUGGAUACUGUAGUUCTT against Gpr152 | inactive: 0.023
CCUAACAUUCACUGUGUCATT against Olfr994 | inactive: 0.348
CGCUCUCUACGAUCAUUGUTT against Olfr481 | inactive: -0.387
GCAUCGUUAUGCGCCUCACTT against Neurog2 | inactive: 0.297
GGAGCAUGUCUUUAAGAAGTT against Stac | inactive: -1.15
GGCGGUUCAAUAUUAAGCUTT against Mlxipl | inactive: 0.743
GGCUCCUAGUGAUUAAAAGTT against 4930578I06Rik | inactive: 0.0788
GGAAGAAGAGAAACACGAGTT against Xpa | inactive: -0.0701
GGAGGAUUACAACACUGUUTT against Enpp3 | inactive: -0.617
GGACCUUGGCCUUACACAATT against Astn2 | active: 2.29
GGAGAUUGUAGAGGACGUATT against U2af2 | inactive: -0.745
GCUAGUAUUCUAAGAUCUUTT against Mpp6 | active: 2.25
GGAUGACUUCAAAUCAGAATT against Tnip2 | inactive: 0.156
GCGUGUACCCUUUCUAGUGTT against Slc18a3 | inactive: 0.881

Pulled one by one from the list above, 2 records:
Sequence | z-score
GCUGAAAAUACAAUCUCUGTT against Capn3 | inactive: 1.55
UCCCAGAAUAAGAGUGAGGTT against Clec4b2 | inactive: -0.481

The results go on.

Sequence | z-score
GGGCACAUACUCAGAUGAATT against Ngfr | inactive: -0.62
GCGGCAUAUGCCUACUCUUTT against Slc6a12 | inactive: -0.381
CGAUUUGCAGCCCUCAUGATT against Inka1 | active: -2.27
GGAGCUGAGAAACAAGAUUTT against Bspry | inactive: -0.972
CGCACAAUUACCUCAGCAATT against Rassf3 | inactive: -1.39
GGUCUUUGAUGAAGAAGUGTT against Rsph9 | inactive: -1.3
GCUUUCAAGUGGUUAUGAATT against Nsun6 | inactive: 0.0136
GGAAGAUGACAACUUAUCUTT against Abcc8 | inactive: -0.854
GGACUUCUUUGUAAUACUGTT against Abca13 | inactive: 0.543
GGAUUAAACCAUUAACUGCTT against AY702102 | inactive: 1.04
GGAGAGCAGAUGUGAUUCUTT against Mrm2 | inactive: -0.561
CCUGAUCUUCUGUGAUAGCTT against Olfr881 | inactive: 0.602
UUUGCAUGUACAGAAUGCUTT against Olfr312 | inactive: 1.54
GGAGCAGAUUAAAUCCCUGTT against Krt8 | active: 2.46
GGUCCUAGUCUUUCAGAUGTT against Iqca | inactive: 1.7
GGAGACAGCACAAGUCCUGTT against H2-M10.2 | inactive: -0.159
GGAUUUCAAACACGUCUUUTT against Asic5 | inactive: 0.222
GGCUGACCUUCUGUGCUGATT against Olfr876 | inactive: -0.98
GGUGUCAGAAGCAGUGUAUTT against Treml1 | inactive: 0.459
GCUGGUCAAGGGUCUAGAGTT against Saa3 | active: -2.05
CGGUCGUGAGUUUGUAUAUTT against Pyroxd1 | inactive: 0.179
GCAUGUUCUUUGUCACCUGTT against Htr6 | inactive: -0.334

As entered above:
In z-score, GGGCACAUACUCAGAUGAATT against Ngfr reads inactive: -0.62
In z-score, GCGGCAUAUGCCUACUCUUTT against Slc6a12 reads inactive: -0.381
In z-score, GGAGACAGCACAAGUCCUGTT against H2-M10.2 reads inactive: -0.159
In z-score, GGUCCUAGUCUUUCAGAUGTT against Iqca reads inactive: 1.7
In z-score, GGAUUAAACCAUUAACUGCTT against AY702102 reads inactive: 1.04

Later entries:

Sequence | z-score
GGAGGUAUUUACCAAAGAUTT against Acer2 | inactive: 0.453
GGAGAAGAAGAAAAAGUCATT against BC005537 | inactive: -0.495
CGAUGGAAAACCUCACAUCTT against Oaz2 | inactive: -0.0735
GCACUGGACAUUGUACACCTT against Caskin1 | inactive: 1.71
GGACAAGUUCAUAAAGAGATT against Cyp2r1 | inactive: -0.991
GGUUACCUAUUACAUCAUATT against Pcdhgb4 | inactive: 0.811
GGAGAUGCUAUAGAUGAAATT against Il20 | inactive: -0.04
GCAUGAUCUCAUGUUCCUUTT against Tmem38b | inactive: 0.651
GCGAUUUCGUCUUCUGUUGTT against Wdr5b | inactive: -0.0399
GCAUAUGUGUGUUUAACCUTT against Rdh16 | inactive: -0.0925
GGAGAUACAAAUUUAAGAGTT against Tdp2 | inactive: -1.17
GGAAGACUUUGCUUAUUGGTT against Tspan10 | inactive: 0.693
GCAUGCUUCGCGUAUGCAATT against Gpr151 | inactive: -0.72
GACUGUUUUACAUUCCACATT against Klra21 | inactive: -0.138
GGAGUUGAUUGAGGUAAAGTT against Mettl3 | inactive: -1.83
GCACAGACAUGAAGUACCGTT against Tcea3 | inactive: 0.32
GCUGAGUUGACUCCUACUGTT against Mcpt1 | active: -2.23
GCUUACCCUGACUCCAAUUTT against Dhx33 | inactive: -1.76
GGCAACAAGGUCCUUUAAGTT against Mllt3 | inactive: 1.86
